Values of other authors as cited in patent publication US9568466B2, “In vitro assay for predicting renal proximal tubular cell toxicity” (priority 2012, dated 2017).
Some entries share one result that the patent states for a list of compounds. For at least one compound, name, drawing or mass did not settle the structure.

Test system: renal proximal tubule
Conditions: clinically relevant concentrations; cited from earlier work

SMILES	nephrotoxicity in humans / direct damage of the renal proximal tubule
O=[As]O[As]=O (stereo not drawn) [Compound 11, Arsenic(III) oxide]	nephrotoxic in humans and damage directly the renal proximal tubule
[Cl][Cu][Cl] [Compound 14, Copper(II) chloride]	nephrotoxic in humans and damage directly the renal proximal tubule
CN[C@H](CC(C)C)C(=O)N[C@H]1C(=O)N[C@@H](CC(N)=O)C(=O)N[C@H]2C(=O)N[C@H]3C(=O)N[C@H](C(=O)N[C@H](C(=O)O)c4cc(O)cc(O)c4-c4cc3ccc4O)[C@H](O)c3ccc(c(Cl)c3)Oc3cc2cc(c3O[C@@H]2O[C@H](CO)[C@@H](O)[C@H](O)[C@H]2O[C@H]2C[C@](C)(N)[C@H](O)[C@H](C)O2)Oc2ccc(cc2Cl)[C@H]1O [Compound 23, Vancomycin]	nephrotoxic in humans, but do not damage directly the renal proximal tubule
